Results from publication PMC6694439.
These are yes or no findings as the source states them, for the method shown. Binding seen in cells or lysates may run through a third protein. Some results given as binding are weak or reduced against the parent protein; the word gives no strength.

Target: T1, vascular endothelial-cadherin (VE-cadherin) (human (endogenous in EAhy926)) (UniProt P33151)
T1 sequence: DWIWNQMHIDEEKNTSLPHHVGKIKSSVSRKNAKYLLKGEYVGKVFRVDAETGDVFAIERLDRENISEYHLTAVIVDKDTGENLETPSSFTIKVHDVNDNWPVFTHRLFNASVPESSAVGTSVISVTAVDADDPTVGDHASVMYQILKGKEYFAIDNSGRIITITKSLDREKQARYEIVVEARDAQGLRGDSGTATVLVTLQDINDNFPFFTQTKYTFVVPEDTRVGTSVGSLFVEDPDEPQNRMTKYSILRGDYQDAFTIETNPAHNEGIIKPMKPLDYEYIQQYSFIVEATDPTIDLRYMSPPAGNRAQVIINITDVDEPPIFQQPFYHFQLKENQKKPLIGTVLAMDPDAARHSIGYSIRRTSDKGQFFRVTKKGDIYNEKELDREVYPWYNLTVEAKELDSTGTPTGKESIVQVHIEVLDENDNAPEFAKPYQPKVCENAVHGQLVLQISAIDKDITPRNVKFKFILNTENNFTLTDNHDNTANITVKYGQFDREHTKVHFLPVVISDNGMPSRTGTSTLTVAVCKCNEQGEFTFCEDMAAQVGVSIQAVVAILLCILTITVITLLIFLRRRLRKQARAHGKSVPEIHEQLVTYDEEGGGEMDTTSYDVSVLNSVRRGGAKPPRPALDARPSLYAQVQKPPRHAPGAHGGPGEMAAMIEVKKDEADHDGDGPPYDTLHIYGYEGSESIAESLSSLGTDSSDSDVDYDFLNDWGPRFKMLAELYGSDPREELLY
Assay: co-IP; EAhy926 monolayers, control or stimulated with IL-8 for 3 min, with or without L-NMA pretreatment; immunoprecipitated with VE-cadherin antibody and probed for p120

- binding: binds
B1: p120 (protein, UniProt O60716 1-968)
chain: MDDSEVESTASILASVKEQEAQFEKLTRALEEERRHVSAQLERVRVSPQDANPLMANGTLTRRHQNGRFVGDADLERQKFSDLKLNGPQDHSHLLYSTIPRMQEPGQIVETYTEEDPEGAMSVVSVETSDDGTTRRTETTVKKVVKTVTTRTVQPVAMGPDGLPVDASSVSNNYIQTLGRDFRKNGNGGPGPYVGQAGTATLPRNFHYPPDGYSRHYEDGYPGGSDNYGSLSRVTRIEERYRPSMEGYRAPSRQDVYGPQPQVRVGGSSVDLHRFHPEPYGLEDDQRSMGYDDLDYGMMSDYGTARRTGTPSDPRRRLRSYEDMIGEEVPSDQYYWAPLAQHERGSLASLDSLRKGGPPPPNWRQPELPEVIAMLGFRLDAVKSNAAAYLQHLCYRNDKVKTDVRKLKGIPVLVGLLDHPKKEVHLGACGALKNISFGRDQDNKIAIKNCDGVPALVRLLRKARDMDLTEVITGTLWNLSSHDSIKMEIVDHALHALTDEVIIPHSGWEREPNEDCKPRHIEWESVLTNTAGCLRNVSSERSEARRKLRECDGLVDALIFIVQAEIGQKDSDSKLVENCVCLLRNLSYQVHREIPQAERYQEAAPNVANNTGPHAASCFGAKKGKDEWFSRGKKPIEDPANDTVDFPKRTSPARGYELLFQPEVVRIYISLLKESKTPAILEASAGAIQNLCAGRWTYGRYIRSALRQEKALSAIADLLTNEHERVVKAASGALRNLAVDARNKELIGKHAIPNLVKNLPGGQQNSSWNFSEDTVISILNTINEVIAENLEAAKKLRETQGIEKLVLINKSGNRSEKEVRAAALVLQTIWGYKELRKPLEKEGWKKSDFQVNLNNASRSQSSHSYDDSTLPLIDRNQKSDKKPDREEIQMSNMGSNTKSLDNNYSTPNERGDHNRTLDRSGDLGDMEPLKGTTPLMQDEGQESLEEELDVLVLDDEGGQVSYPSMQKI
